No constants are given. Whether binding was seen depends on the method and setting.
Molecular target: PKCζ PB1 domain, residues 11-101 (pelletation assay) (human) (UniProt Q05513)
Experiment: sedimentation

The chains behind the UniProt entries cited, without tags or fusion partners. Residues count along the entry.
UniProt Q05513, residues 11-101: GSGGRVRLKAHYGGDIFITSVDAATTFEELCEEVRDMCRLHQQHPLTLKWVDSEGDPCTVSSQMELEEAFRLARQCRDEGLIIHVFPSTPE

binding: no binding
Substance: PKCζ PB1 domain, residues 11-101 (pelletation assay) (from UniProt Q05513 11-101) (domain or fragment)

Reference: paper doi:10.1101/671792
